The source of these data is PMC4002113.

No constants are given. Whether binding was seen depends on the method and setting. Some binding calls cover weakened binding; strength is not graded here. For part of these data: Tags and fused reporters may be left off the sequences shown.

Experiment [1] addresses C-terminally His-tagged full-length p97 (residues 1–806) (murine) (UniProt Q01853). Nature of the experiment: condition: p97 in the cell at 10–50 μM, titrant at 7.5 to 10 times the cell protein concentration; ITC; full-length p97 in the cell at 10–50 μM, FAF1 or FAF1 truncation as titrant at 7.5 to 10 times the cell concentration; 20 mM HEPES, 150 mM KCl, pH 7.4; 30 °C; average of two measurements; both purified.

Experiment [2] shares this target. The experiment is described as follows: SEC; separately purified p97, FAF1 and UN mixed in a ratio of 1:1:0.5 (with or without UN) at 50 μM, 15 min on ice, analytical Superose 6; fractions analysed by SDS-PAGE; both purified. For orientation: In gel filtration, larger molecules generally elute earlier.
Experiment [3] has as its target FAF1-UBX(550–649) (murine) (UniProt P54731). The experiment is described as follows: cross-linking; 15 μM FAF1 or truncation in SEC buffer with ethyl glycol bissuccinimidyl succinate (EGS), 15 min at room temperature, stopped with Tris, SDS-PAGE; both purified.

B1: FAF1-CC(491–560) (domain or fragment, UniProt P54731 491-560)
chain: QEDIKDEDEREARENVKREQDEAYRLSLEADRAKREAHEREMAEQFRLEQIRKEQEEEREAIRLSLEQAL
As for B1, in experiment [1], the binding entry is given as “no binding”.

B2: N-terminally His-tagged full-length FAF1 (protein, UniProt P54731 1-649)
chain: MASNMDREMILADFQACTGIENIDEAITLLEQNNWDLVAAINGVIPQENGILQSDFGGETMPGPTFDPASHPAPASTPSSSAFRPVMPSRQIVERQPRMLDFRVEYRDRNVDVVLEDSCTVGEIKQILENELQIPVPKMLLKGWKTGDVEDSTVLKSLHLPKNNSLYVLTPDLPPPSSSSHAGALQESLNQNFMLIITHREVQREYNLNFSGSSTVQEVKRNVYDLTSIPVRHQLWEGWPASATDDSMCLAESGLSYPCHRLTVGRRTSPVQTREQSEEQSTDVHMVSDSDGDDFEDASEFGVDDGEVFGMASSTLRKSPMMPENAENEGDALLQFTAEFSSRYGDCHPVFFIGSLEAAFQEAFYVKARDRKLLAIYLHHDESVLTNVFCSQMLCAESIVSYLSQNFITWAWDLTKDTNRARFLTMCNRHFGSVIAQTIRTQKTDQFPLFLIIMGKRSSNEVLNVIQGNTTVDELMMRLMAAMEIFSAQQQEDIKDEDEREARENVKREQDEAYRLSLEADRAKREAHEREMAEQFRLEQIRKEQEEEREAIRLSLEQALPPEPKEENAEPVSKLRIRTPSGEFLERRFLASNKLQIVFDFVASKGFPWDEFKLLSTFPRRDVTQLDPNKSLLEVNLFPQETLFLQAKE
modifications: NanoTemper495-N-hydroxysuccinimide blue/red dye label (in the MST only)
On to B2, for which the binding entry in experiment [2] was “binds”.

B3: FAF1-UBX(550–649) (domain or fragment, UniProt P54731 550-649)
chain: EAIRLSLEQALPPEPKEENAEPVSKLRIRTPSGEFLERRFLASNKLQIVFDFVASKGFPWDEFKLLSTFPRRDVTQLDPNKSLLEVNLFPQETLFLQAKE
For B3, in experiment [3], the binding result is “no binding (tested: 15 μM)”.
